Measurements published in paper PMC2860243.

By UniProt entry, the sequences of proteins in these tests, tags left out.
UniProt P20263: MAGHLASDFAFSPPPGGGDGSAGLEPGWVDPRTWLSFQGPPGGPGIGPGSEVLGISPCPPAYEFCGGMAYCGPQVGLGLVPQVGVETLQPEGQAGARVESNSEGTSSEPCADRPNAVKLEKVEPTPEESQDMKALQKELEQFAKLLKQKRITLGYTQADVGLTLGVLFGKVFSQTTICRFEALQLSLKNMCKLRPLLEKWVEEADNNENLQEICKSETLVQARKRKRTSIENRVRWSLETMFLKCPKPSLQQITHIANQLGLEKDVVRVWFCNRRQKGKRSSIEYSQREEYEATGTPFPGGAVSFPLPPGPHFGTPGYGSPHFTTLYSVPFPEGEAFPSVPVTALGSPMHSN

T1: FLAG-tagged Tcfcp2l1 (F-Tcfcp2l1) (mouse) (UniProt Q3UNW5)
T1 sequence: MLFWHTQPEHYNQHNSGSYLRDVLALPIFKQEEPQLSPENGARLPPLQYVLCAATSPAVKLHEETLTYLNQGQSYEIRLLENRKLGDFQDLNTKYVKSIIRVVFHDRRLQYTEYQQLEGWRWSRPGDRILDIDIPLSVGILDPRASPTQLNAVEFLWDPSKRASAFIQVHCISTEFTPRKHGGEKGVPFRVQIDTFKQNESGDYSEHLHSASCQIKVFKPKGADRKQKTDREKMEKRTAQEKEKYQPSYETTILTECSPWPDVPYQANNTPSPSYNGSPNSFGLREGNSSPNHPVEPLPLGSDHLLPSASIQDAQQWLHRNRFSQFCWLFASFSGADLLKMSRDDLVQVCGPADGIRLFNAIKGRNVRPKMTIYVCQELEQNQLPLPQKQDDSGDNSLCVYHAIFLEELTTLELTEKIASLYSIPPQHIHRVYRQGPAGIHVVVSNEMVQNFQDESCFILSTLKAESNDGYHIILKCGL


Assays:
[1] = target: Oct4 (Pou5f1) (mouse (endogenous in 46C ESCs)) (UniProt P20263); experiment: affinity purification with mass spectrometry; immunoprecipitation of endogenous Oct4 (antibody sc-8628 cross-linked to protein G Sepharose) from 1 ml 46C ESC nuclear extract, Benzonase, washes with C-100*, 4°C, boiled in SDS-loading dye; control goat IgG
[2] = target: FLAG-Oct4 (F-Oct4) (mouse) (UniProt P20263); experiment: affinity purification with mass spectrometry; FLAG-affinity purification of F-Oct4 from 1.5 ml ESC nuclear extract on anti-FLAG M2 agarose, buffer C-100 (20 mM HEPES pH 7.6, 100 mM KCl), washes with 0.02% NP-40, Benzonase, 4°C, FLAG peptide elution; three purifications; control ZHBTc4 extract
[3] = target: T1, FLAG-tagged Tcfcp2l1 (F-Tcfcp2l1) (mouse); experiment: affinity purification with mass spectrometry; FLAG-affinity purification of F-Sall4, F-Dax1, F-Tcfcp2l1 or F-Esrrb from nuclear extract of ZHBTc4-derived ESC clones, buffer C-100, Benzonase, FLAG peptide elution; two purifications each without and with doxycycline (16 hr, Oct4 removed); hits present in both -Dox purifications

Row | binding [1] | binding [2] | binding [3] | Binder
1 | binds | binds | – | Foxp4 (protein, UniProt Q9DBY0 1-795) MMVESASETIRSAPSGQNGVGSLSAQADGGGGAGTAGTAPAAGRDASGREAASGGADSNGEMSPAELLHFQQQQALQVARQFLLQQASSLNSPGNNDSKQSASAVQVPVSVAMMSQQMLTPQQMQQILSPPQLQALLQQQQALMLQQLQEYYKKQQEQLHLQLLTQQQAGKQQPKEALGNKQLAFQQQLLQMQQLQQQHLLNLQRQGLVSLQPSQASGPLQALPQAVCPTDLPQLWKGEGAPGQPAEDSGRQEGLDLASTAVTATSFASPPKVSPPLSHHPLPNGQPTVLTSRRDSSSHEETPSSHPLYGHGECKWPGCETLCEDLGQFIKHLNTEHALDDRSTAQCRVQMQVVQQLEIQLAKESERLQAMMAHLHMRPSEPKPFSQPVTVSADPFPDGLVHPPTSAAAPVTPLRPPGLGSASLHSGGPARRRSNDKFCSPISSELAQNHEFYKNADVRPPFTYASLIRQAILETPDRQLTLNEIYNWFTRMFAYFRRNTATWKNAVRHNLSLHKCFVRVENVKGAVWTVDEREYQKRRPPKMTGSPTLVKNMISGLSYGALNASYQAALAESSFPLLSNPGMLNPGSASSLLPLSQEDLGVPGEPLPSNGSSSPPRLSPPQYSHQIQVKEEPAEAEEDRRPGPPLGAPNPSTVGPPEDRDLEEDLGGEDMPSQPCPLIPGWKPSLLHLSYCVKPKFTVSVGSKTPSSPLPPPPRVQGSYSLPPCSYLAYGDMRGQNPAPSPGLLSGVGGGLFRCLHRTKSPSLPGVWILAAELETMRFHRPPMGDPQPKTADWV
2 | – | – | binds | Grhl2 (protein, UniProt Q8K5C0 1-625) MSQESDNNKRLVALVPMPSDPPFNTRRAYTSEDEAWKSYLENPLTAATKAMMSINGDEDSAAALGLLYDYYKVPRDKRLLSVSKASDSQEDQDKRNCLGTSEAQINLSGGENRVQVLKTVPVNLCLSQDHMENSKREQYSVSITESSAVIPVSGITVVKAEDFTPVFMAPPVHYPRADSEEQRVVIFEQTQYDLPSIASHSSYLKDDQRSTPDSTYSESFKDGASEKFRSTSVGADEYTYDQTGSGTFQYTLEATKSLRQKQGEGPMTYLNKGQFYAITLSETGDNKCFRHPISKVRSVVMVVFSEDKNRDEQLKYWKYWHSRQHTAKQRVLDIADYKESFNTIGNIEEIAYNAVSFTWDVNEEAKIFITVNCLSTDFSSQKGVKGLPLMIQIDTYSYNNRSNKPIHRAYCQIKVFCDKGAERKIRDEERKQNRKKGKGQASQAQCNNSSDGKMAAIPLQKKSDITYFKTMPDLHSQPVLFIPDVHFANLQRTGQVYYNTDDEREGSSVLVKRMFRPMEEEFGPTPSKQIKEENVKRVLLYVRKENDDVFDALMLKSPTVKGLMEALSEKYGLPVEKITKLYKKSKKGILVNMDDNIIEHYSNEDTFILNMESMVEGFKITLMEI

Further lines, the binder ahead of its results:

Row | Binder | binding [1] | binding [2] | binding [3]
3 | Tcfcp2 (protein, UniProt Q9ERA0 1-502) MAWALKLPLADEVIESGLVQDFDASLSGIGQELGAGAYSMSDVLALPIFKQEESSLPPDNENEILPFQYVLCAATSPAVKLHDETLTYLNQGQSYEIRMLDNRKLGELPELNGKLVKSIFRVVFHDRRLQYTEHQQLEGWRWNRPGDRILDIDIPMSVGVIDPRANPTQLNTVEFLWDPSKRTSVFIQVHCISTEFTMRKHGGEKGVPFRVQIDTFKENGNGEYTEHLHSASCQIKVFKPKGADRKQKIDREKMEKRTPHEKEKYQPSYETTILTECSPWPEITYVNNSPSPGFNSSHSSFSLGEGNGSPNHQPEPPPPVTDNLLPTTTPQEAQQWLHRNRFSTFTRLFTNFSGADLLKLTRDDVIQICGPADGIRLFNALKGRMVRPRLTIYVCQESLQLREQQPQPQPQPQKQEDGDSNGTFFVYHAIYLEELTAVELTEKIAQLFSISPHQISQIYKQGPTGIHVVISDEMVQNFQEEACFILDTMEAETSDSYHVILK | – | – | binds
4 | Rbm14 (protein, UniProt Q8C2Q3 1-669) MKIFVGNVDGADTTPEELAALFAPYGTVMSCAVMKQFAFVHMRENAGAVRAIEALHGHELRPGRALVVEMSRPRPLNTWKIFVGNVSAACTSQELRSLFERRGRVIECDVVKDYAFVHMEKEADAKAAIAQLNGKEVKGKRINVELSTKGQKKGPALAIQSGDKTKKPGAGDTAFPGTGGFSATFDYQQAFGNSTGGFDGQARQPTPPFFGRDRSPLRRSPPRASYVAPLTAQPATYRAQPSVSLGAAYRAQPSASLGVGYRTQPMAAQAASYRAQPSVSLGAPYRGQLASPSSQSAAASSLGPYGGVQPSASALSTYGGQAAAASSLNSYGAQGSSLASYGNQPSSYGAQAASSYGVRAAASSYNTQGAASSLGSYGAQAASYGAQSAASSLAYGAQAASYSAQPSASYSAQSAPYAAQQAASYSSQPAAYVAQPATAAAYASQPAAYAAQATTPMAGSYGAQPVVQTQLNSYGAQASIGLSGSYGAQSAAAATGSYGAAAAYGAQPSATLAAPYRTQSSASLAASYAAQQHPQAAASYRGQPGSAYDGTGQPSAAYLSMSQGAVANANSTPPPYERTRLSPPRASYDDPYKKAVAMSKRYGSDRRLAELSDYRRLSESQLSFRRSPTKSSLDYRRLPDAHSDYARYSGSYNDYLRAAQMHSGYQRRM | binds | binds | –
5 | L1td1 (protein, UniProt Q587J6 1-782) MSGVQSKAARLQKERKEKLSADRERKTATSLCLKHSEVPASMMKQFNALMEMQEVMFAEMRETYKNDIKEMLLKRTAPWVKHLEERIGQQEGDAISERPKPGEKVEELSSGTDEDTENLTVRSKKGKQDKAKPLNSSHVLKSSLERGGEALRGEHGRCGESSSLVDWKNANEKPAREASCQSEENRLKAPKESPPEGGAGATLRLAADFSAATLDVGRQWSQVFRLLKEKELEPELQCSVKLAFKCDGEANVFSDLHSLRQFTSRKPFLRELLKDVFPQNEGGRRNELRERLGKTLGDTKHEARRIASDSLSFLFIKEVEVASPEVKTYKEETLDRKNKGTLKKQEGEEEEISETQGEETSEGETSELGEEEGSESEEEEESSESEEEEESSESAEEIGFISLVVDSESEEEVNRKTASQTKKKETFHGLKELAFSYLVWDSKKKKLVRCQEGGAAAASTQRIGMPCLTLYLTSPSESLGAGSDGPKSHSCTKLSALSQVTPLLTNIEKGRYKVPQTEEPTAKEADLILETEENFKRGVISVIRQMQREVDKIKNIYVSDVLNMKSSLDDLNSLACTIEARVSEQEDAVEGLTKDTMQLAREIVDKERLREREDRFRSSNIRVIGIPEKENRENGAVDIIKEVIEENFAELEDQSLEIVSAHRVPNSVDEHRLTPRHILVKFGSASDKQRVLKASRAKQEITYRGSKIRLTADLSPGTIDARSQWCGIIKILQDEGFQPRILYPAKLAFDFKGKTKIFFDIEEFKKFISDIPYLKDLLNNIH | binds | binds | –
6 | lig3 (protein, UniProt P97386 1-1015) MTLAFKILFPRNLCALGRKELCLFPEQNRWAAISQFSQWSETNLLGGCCLLQRRKPVLALQRGHLRPRATHLTFWPGSHVGLCTGPCAMAEQRFCVDYAKRGTAGCKKCKEKIVKGVCRIGKVVPNPFSESGGDMKEWYHIKCMFEKLERARATTKKIEDLTELEGWEELEDNEKEQISQHIADLSSKAAATPKKKAAVQAKLTTTGQVTSPVKGASFITSTNPRKFSGFSAAKPNNSEQAPSSPAPGTSLSASKCDPKHKDCLLREFRKLCAMVAENPSYNTKTQIIHDFLQKGSTGGFSDGFHGDVYLTVKLLLPGVIKSVYNLNDKQIVKLFSRIFNCNPDDMARDLEQGDVSETIRIFFEQSKSFPPAAKSLLTIQEVDAFLLHLSKLTKEDEQQQALQDIASRCTANDLKCIIRLIKHDLKMNSGAKHVLDALDPNAYEAFKASRNLQDVVERVLHNEQEVEKDPGRRRALRVQASLMTPVQPMLAEACKSIEYAMKKCPNGMFSEIKYDGERVQVHKKGDHFSYFSRSLKPVLPHKVAHFKDYIPKAFPGGQSMILDSEVLLIDNNTGKPLPFGTLGVHKKAAFQDANVCLFVFDCIYFNDVSLMDRPLCERRKFLHDNMVEIRNRIMFSEMKQVTKASDLADMINRVIREGLEGLVLKDVKGTYEPGKRHWLKVKKDYLNEGAMADTADLVVLGAFYGQGSKGGMMSIFLMGCYDPDSQKWCTVTKCAGGHDDATLARLQKELVMVKISKDPSKIPSWLKINKIYYPDFIVPDPKKAAVWEITGAEFSRSEAHTADGISIRFPRCTRIRDDKDWKSATNLPQLKELYQLSKDKADFAVVAGDEASPTTGGSSGENEGTAGSAGPCKGPPSKSSASAKTTEQKLNSPSSRGGIKPIPKHSPMKPGEKLAVKSSPVKVGMKRKATDETPCLKKVLLDVFTGVRLYLPPSTPDFKRLKRYFVAFDGDLVQEFDMGSATHVLGNREKNTDAQLVSSEWIWACIRKRRLIAPC | – | – | binds

No constants are given. Whether binding was seen depends on the method and setting. In cells and extracts the contact can be indirect. These calls come from enrichment with a bait or labelling near it, and not all partners need be listed. For part of these data: Tags and fused reporters may be left off the sequences shown.
